In publication PMC5566378:
Results are given in words; binding and its absence hold for the method and conditions named. Some binding calls cover weakened binding; strength is not graded here.

Chains of the proteins cited; added tags and fusions are not shown. Residues count along the entry.
UniProt Q96F46, residues 33-320: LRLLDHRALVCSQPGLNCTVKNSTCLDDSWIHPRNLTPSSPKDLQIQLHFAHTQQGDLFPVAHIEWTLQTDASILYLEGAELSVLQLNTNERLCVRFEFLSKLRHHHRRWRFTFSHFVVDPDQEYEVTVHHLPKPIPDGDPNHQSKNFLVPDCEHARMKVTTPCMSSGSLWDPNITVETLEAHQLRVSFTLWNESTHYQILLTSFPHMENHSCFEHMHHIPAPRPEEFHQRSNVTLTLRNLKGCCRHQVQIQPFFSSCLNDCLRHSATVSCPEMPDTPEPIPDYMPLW
UniProt Q16552, residues 24-155: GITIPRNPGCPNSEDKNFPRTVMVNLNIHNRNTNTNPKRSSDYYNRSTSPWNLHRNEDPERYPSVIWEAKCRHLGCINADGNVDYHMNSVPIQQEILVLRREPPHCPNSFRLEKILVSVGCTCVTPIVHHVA

How the values were obtained:
[1] = target: T1, human IL-17RC extracellular domain (human) (UniProt Q8NAC3); assay: SPR; Biacore 8K; IL-17RC ECD amine-coupled on a CM4 chip (about 500 RU); cytokines as analytes in PBS pH 7.4, 3 mM EDTA, 0.05% Tween20; 20 °C, 30 µl/min; 1:1 Langmuir model or steady-state analysis; both purified
T1 sequence: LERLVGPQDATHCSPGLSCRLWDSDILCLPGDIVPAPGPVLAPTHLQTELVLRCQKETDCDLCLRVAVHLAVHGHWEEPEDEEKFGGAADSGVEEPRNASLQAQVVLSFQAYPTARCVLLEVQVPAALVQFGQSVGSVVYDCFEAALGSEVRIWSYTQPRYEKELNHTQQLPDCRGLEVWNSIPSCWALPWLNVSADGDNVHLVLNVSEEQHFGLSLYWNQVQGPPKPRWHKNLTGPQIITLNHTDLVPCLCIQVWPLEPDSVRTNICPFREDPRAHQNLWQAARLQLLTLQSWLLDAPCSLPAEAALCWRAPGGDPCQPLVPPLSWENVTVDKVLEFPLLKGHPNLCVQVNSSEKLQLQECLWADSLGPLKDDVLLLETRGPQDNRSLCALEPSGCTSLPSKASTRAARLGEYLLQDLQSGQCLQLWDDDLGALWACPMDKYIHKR

[2] = target: human IL-17RA extracellular domain (human) (UniProt Q96F46); assay: SPR; Biacore 8K; biotinylated IL-17RA ECD immobilised on a streptavidin chip (about 500 RU); cytokines as analytes in PBS pH 7.4, 3 mM EDTA, 0.05% Tween20; 20 °C, 30 µl/min; 1:1 Langmuir model or steady-state analysis; both purified
[3] = target: T2, IL-17F chain of the human IL-17A/F heterodimer (human) (UniProt Q96PD4); assay: crystal structure; free IL-17A/F heterodimer (chains co-expressed, purified as the heterodimer); tetragonal crystals, 0.1 M Bis-Tris-propane pH 7.0, 0.5 M succinic acid, 20 °C; 2.3 Å; both purified
T2 sequence (chain, N-linked glycosylation at Asn83 (seen in the crystal)): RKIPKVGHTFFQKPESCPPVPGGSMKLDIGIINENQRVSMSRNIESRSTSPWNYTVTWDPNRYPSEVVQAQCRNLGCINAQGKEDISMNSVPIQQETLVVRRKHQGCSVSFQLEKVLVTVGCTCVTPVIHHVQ

Substance	binding [1]	binding [2]	binding [3]
human IL-17A homodimer (from UniProt Q16552 24-155) (ligand)	binds	binds	
IL-17A chain of the human IL-17A/F heterodimer (from UniProt Q16552 24-155)			binds
